Results on three molecules are retold here after paper PMC4751435 (2016).

Sequences of proteins named here, by UniProt entry; tags and fusion partners are left off. A change or cut given only in a name is not applied to a line headed by its entry.
UniProt O75925: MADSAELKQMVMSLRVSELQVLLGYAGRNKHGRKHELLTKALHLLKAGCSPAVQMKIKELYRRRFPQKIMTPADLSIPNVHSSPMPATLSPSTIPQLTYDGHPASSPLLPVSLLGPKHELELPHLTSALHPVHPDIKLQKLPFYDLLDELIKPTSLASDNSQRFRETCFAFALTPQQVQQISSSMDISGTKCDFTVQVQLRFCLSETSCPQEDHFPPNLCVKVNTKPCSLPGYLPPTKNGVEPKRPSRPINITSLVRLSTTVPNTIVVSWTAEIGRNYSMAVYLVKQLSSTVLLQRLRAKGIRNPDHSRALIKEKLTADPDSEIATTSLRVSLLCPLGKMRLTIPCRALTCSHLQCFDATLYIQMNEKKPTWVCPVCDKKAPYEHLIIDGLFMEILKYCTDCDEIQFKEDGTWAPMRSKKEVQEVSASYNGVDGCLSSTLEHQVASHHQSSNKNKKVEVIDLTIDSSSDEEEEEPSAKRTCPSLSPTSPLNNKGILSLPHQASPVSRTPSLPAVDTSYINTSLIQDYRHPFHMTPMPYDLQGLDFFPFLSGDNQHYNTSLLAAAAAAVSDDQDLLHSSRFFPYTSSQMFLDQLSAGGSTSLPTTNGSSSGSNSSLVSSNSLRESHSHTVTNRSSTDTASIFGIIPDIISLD
UniProt P61956: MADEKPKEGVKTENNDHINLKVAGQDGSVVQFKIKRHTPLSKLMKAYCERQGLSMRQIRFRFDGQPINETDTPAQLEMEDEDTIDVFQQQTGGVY
UniProt P55854: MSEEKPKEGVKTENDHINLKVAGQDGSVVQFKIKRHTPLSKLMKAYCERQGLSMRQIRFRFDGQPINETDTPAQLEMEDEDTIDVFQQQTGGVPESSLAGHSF
UniProt O15409: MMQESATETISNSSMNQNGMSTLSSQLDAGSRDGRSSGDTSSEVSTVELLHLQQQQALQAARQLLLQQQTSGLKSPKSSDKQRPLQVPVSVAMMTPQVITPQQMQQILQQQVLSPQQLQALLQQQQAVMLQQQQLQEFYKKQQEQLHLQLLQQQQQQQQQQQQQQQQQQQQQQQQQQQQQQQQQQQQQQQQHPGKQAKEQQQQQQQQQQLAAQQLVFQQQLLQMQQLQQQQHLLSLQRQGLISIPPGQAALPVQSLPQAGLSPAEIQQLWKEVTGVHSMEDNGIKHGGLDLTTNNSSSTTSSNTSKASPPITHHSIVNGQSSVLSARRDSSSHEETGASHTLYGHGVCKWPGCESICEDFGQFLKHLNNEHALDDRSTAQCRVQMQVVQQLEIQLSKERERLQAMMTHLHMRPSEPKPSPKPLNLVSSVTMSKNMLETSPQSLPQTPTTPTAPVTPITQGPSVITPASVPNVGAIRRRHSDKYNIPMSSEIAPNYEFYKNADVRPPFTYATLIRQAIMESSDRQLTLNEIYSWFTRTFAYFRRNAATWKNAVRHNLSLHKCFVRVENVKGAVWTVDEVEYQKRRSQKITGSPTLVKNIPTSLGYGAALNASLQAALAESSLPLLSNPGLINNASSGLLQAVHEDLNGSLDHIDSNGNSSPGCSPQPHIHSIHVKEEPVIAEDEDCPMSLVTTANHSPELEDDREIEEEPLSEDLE

Experiment in all cases: FRET or BRET; BRET in live HEK293 cells transfected with a Renilla luciferase fusion (donor) and a YFP fusion (acceptor); control donor a nuclear-targeted luciferase; mean corrected BRET ratios, n = 3
In test [1] the target is YFP-PIAS1 C350S mutant (human) (UniProt O75925).
Test [2] deals with YFP-SUMO2 alanine mutant (AA) (human) (UniProt P61956).
Test [3] has as its target YFP-SUMO3 alanine mutant (AA) (human) (UniProt P55854).
Test [4] concerns the target YFP-SUMO3 (wild-type, GG) (human) (UniProt P55854).
For test [5] the target is unchanged. This is another data set of the same source.

Read-outs that look alike come from different tables or passages of the source. Results are given in words; binding and its absence hold for the method and conditions named. Binding seen in cells or lysates may run through a third protein. For some assays here: Binding can be weak; no strength is given. For some assays here: Tags and fused reporters may be left off the sequences shown.

Regarding “luciferase-FOXP2 (wild-type, full-length 1-715) (from UniProt O15409 1-715)”, the binding entry in test [1] is reported as “no binding”; in test [2], “no binding”; in test [3], “no binding”; in test [4] it was “binds”.
In the case of “luciferase-FOXP2 K674R mutant (from UniProt O15409 1-715)”, the binding result in test [2] is reported as “no binding”; in test [3], “no binding”; in test [4], “binds”.

B1: luciferase-FOXP1 (protein, UniProt Q9H334 1-677)
chain: MMQESGTETKSNGSAIQNGSGGSNHLLECGGLREGRSNGETPAVDIGAADLAHAQQQQQQALQVARQLLLQQQQQQQVSGLKSPKRNDKQPALQVPVSVAMMTPQVITPQQMQQILQQQVLSPQQLQVLLQQQQALMLQQQQLQEFYKKQQEQLQLQLLQQQHAGKQPKEQQQVATQQLAFQQQLLQMQQLQQQHLLSLQRQGLLTIQPGQPALPLQPLAQGMIPTELQQLWKEVTSAHTAEETTGNNHSSLDLTTTCVSSSAPSKTSLIMNPHASTNGQLSVHTPKRESLSHEEHPHSHPLYGHGVCKWPGCEAVCEDFQSFLKHLNSEHALDDRSTAQCRVQMQVVQQLELQLAKDKERLQAMMTHLHVKSTEPKAAPQPLNLVSSVTLSKSASEASPQSLPHTPTTPTAPLTPVTQGPSVITTTSMHTVGPIRRRYSDKYNVPISSADIAQNQEFYKNAEVRPPFTYASLIRQAILESPEKQLTLNEIYNWFTRMFAYFRRNAATWKNAVRHNLSLHKCFVRVENVKGAVWTVDEVEFQKRRPQKISGNPSLIKNMQSSHAYCTPLNAALQASMAENSIPLYTTASMGNPTLGNLASAIREELNGAMEHTNSNESDSSPGRSPMQAVHPVHVKEEPLDPEEAEGPLSLVTTANHSPDFDHDRDYEDEPVNEDME
For B1, the binding result in test [5] was “binds”.
